Patent publication US10227617B2, “Sequestration of carbon dioxide with hydrogen to useful products” (UNIVERSITY OF GEORGIA RESEARCH FOUNDATION, INC., priority 2012, dated 2019)
At least one compound was matched to its structure with a doubt left.

What was measured:
[1] = tested on: Thermoproteus neutrophilus 4-HB-CoA synthetase Tneu_0420, recombinant; conditions: reported Km for Tneu_0420 (Ramos-Vera et al., 2011); cited from earlier work
[2] = molecular target: T1, Metallosphaera sedula acyl-CoA synthetase (4-hydroxybutyrate:CoA ligase) Msed_0394, SEQ ID NO:13, recombinant (Metallosphaera sedula, UniProt A4YDR9); test: 4-hydroxybutyrate-CoA synthetase (acyl-CoA ligase) activity of recombinant Msed_0394, discontinuous DTNB assay; format: biochemical; conditions: Msed_0394, 75° C., pH 7.9
T1 sequence (A4YDR9 1-549): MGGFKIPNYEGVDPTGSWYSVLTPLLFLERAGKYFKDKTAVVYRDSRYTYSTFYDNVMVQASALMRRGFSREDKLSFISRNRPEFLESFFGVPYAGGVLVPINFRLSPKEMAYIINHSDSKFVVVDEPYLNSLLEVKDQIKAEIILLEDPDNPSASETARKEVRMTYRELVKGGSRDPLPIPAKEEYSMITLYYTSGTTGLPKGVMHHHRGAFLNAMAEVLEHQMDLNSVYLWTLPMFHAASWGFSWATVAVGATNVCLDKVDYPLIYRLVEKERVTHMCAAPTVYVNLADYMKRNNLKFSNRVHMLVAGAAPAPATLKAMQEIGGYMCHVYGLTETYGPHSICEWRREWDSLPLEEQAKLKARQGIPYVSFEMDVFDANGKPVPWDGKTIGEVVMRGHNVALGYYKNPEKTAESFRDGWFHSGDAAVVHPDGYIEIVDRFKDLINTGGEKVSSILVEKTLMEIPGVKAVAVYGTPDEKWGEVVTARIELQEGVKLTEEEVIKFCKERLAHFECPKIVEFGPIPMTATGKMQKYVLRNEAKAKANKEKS

[3] = molecular target: T2, Metallosphaera sedula 4-hydroxybutyrate:CoA synthetase Msed_0406, SEQ ID NO:14, recombinant (Metallosphaera sedula, UniProt A4YDT1); test: 4-hydroxybutyrate:CoA synthetase (Msed_0406), discontinuous DTNB assay, 70° C. (Example 8); format: biochemical; conditions: Msed_0406, 70° C.
T2 sequence (A4YDT1 1-564): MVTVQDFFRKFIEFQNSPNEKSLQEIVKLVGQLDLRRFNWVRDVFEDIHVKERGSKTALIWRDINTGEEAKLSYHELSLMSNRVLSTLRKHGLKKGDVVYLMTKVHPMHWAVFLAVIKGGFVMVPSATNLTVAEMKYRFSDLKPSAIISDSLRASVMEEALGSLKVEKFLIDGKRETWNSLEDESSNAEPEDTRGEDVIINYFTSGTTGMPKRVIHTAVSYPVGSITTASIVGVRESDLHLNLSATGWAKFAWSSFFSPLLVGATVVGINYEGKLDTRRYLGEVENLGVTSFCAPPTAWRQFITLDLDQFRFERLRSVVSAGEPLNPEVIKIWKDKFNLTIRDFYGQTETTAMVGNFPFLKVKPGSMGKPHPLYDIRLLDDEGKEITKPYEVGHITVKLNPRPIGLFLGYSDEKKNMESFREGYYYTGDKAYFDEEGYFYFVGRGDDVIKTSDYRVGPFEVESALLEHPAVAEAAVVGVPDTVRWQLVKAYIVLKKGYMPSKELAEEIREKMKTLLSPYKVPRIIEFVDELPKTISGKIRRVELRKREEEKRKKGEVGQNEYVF

In the case of `O=C(O)CCCO` [4-Hydroxybutyrate], the Km [1] is given as 700 µM, the Vmax [2] is given as 0.22 µmol/min/mg and the kcat [3] is given as 1.8 s⁻¹.
